Assay results: the supplement of paper PMC4604168 (melanoma cell lines)
The other results are listed elsewhere or left out. Repeats are few or missing, and single values can be far off.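 Imaging used 1,536-well plates; nuclei positive for cleaved PARP by antibody were divided by total DNA-stained nuclei to yield the apoptosis fraction. Doses for screening kept most cells viable, and cell lines differ markedly in resting and induced cleaved-PARP levels.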

How the values were obtained:
Experiment in all cases: cleaved PARP positive nuclei fraction relative to DMSO control; melanoma cells; higher = more apoptosis
Details in all cases: library dose: low library concentration; 72 h
501Mel = test system: 501Mel
A101D = test system: A101D
A2058 = test system: A2058
A375 = test system: A375
C32 = test system: C32
CBRC013 = test system: CBRC013 (line from a melanoma biopsy)
CBRC014 = test system: CBRC014 (line from a melanoma biopsy)
CBRC016 = test system: CBRC016 (line from a melanoma biopsy)
CBRC017 = test system: CBRC017 (line from a melanoma biopsy)

Row | Structure (SMILES) | cleaved PARP positive nuclei fraction (501Mel) | cleaved PARP positive nuclei fraction (A101D) | cleaved PARP positive nuclei fraction (A2058) | cleaved PARP positive nuclei fraction (A375) | cleaved PARP positive nuclei fraction (C32) | cleaved PARP positive nuclei fraction (CBRC013) | cleaved PARP positive nuclei fraction (CBRC014) | cleaved PARP positive nuclei fraction (CBRC016) | cleaved PARP positive nuclei fraction (CBRC017)
1 | NCC(=O)Nc1ccc(-n2nc(C(F)(F)F)cc2-c2ccc3c(ccc4ccccc43)c2)cc1 + O=C(O)C(=O)Nc1sc2c(c1C(=O)O)CCNC2 [TCS401] (first compound 1 µM, partner dose 1.66667 µM) | 395% | 70.3% | 62.4% | 2710% | 211% | 74.7% | 98.9% | 152% | 67.5%
2 | COc1ccc2c(c1)CCC1C2CCC2(C)C(NCCCCCCN3C(=O)C=CC3=O)CCC12 (stereo not drawn) + c1cc(-c2cnn3cc(-c4ccc(OCCN5CCCCC5)cc4)cnc23)ccn1 [Dorsomorphin] (first compound 0.4 µM, partner dose 0.4 µM) | 121% | 196% | 24.9% | 178% | 64.2% | 483% | 108% | 78.5% | 177%
3 | COC(=O)c1sccc1S(=O)(=O)Nc1ccc(Nc2ccccc2)cc1OC + CC(C)CCN1c2nc(Nc3cc(F)c(O)c(F)c3)ncc2N(C)C(=O)C1C [BID1870] (first compound 1 µM, partner dose 0.2 µM) | 109% | 79.6% | 30.1% | 217% | 153% | 74.2% | 106% | 40.6% | 109%
4 | Cc1cc([N+](=O)[O-])ccc1NS(=O)(=O)c1cc(Cl)ccc1Cl + CC(C)CCN1c2nc(Nc3cc(F)c(O)c(F)c3)ncc2N(C)C(=O)C1C [BID1870] (first compound 1 µM, partner dose 0.2 µM) | 75.6% | 139% | 168% | 119% | 30.1% | 233% | 197% | 1850% | 454%
5 | CCN(CC)CCCCNc1ncc2cc(-c3cc(OC)cc(OC)c3)c(NC(=O)NC(C)(C)C)nc2n1 + Cc1cc([N+](=O)[O-])ccc1NS(=O)(=O)c1cc(Cl)ccc1Cl [FH535] (first compound 0.1 µM, partner dose 1 µM) | 117% | 138% | 110% | 151% | 205% | 51.8% | 151% | 2810% | 523%
6 | CCN(CC)CCCCNc1ncc2cc(-c3cc(OC)cc(OC)c3)c(NC(=O)NC(C)(C)C)nc2n1 + O=C(O)C(=O)Nc1sc2c(c1C(=O)O)CCNC2 [TCS401] (first compound 0.1 µM, partner dose 1.66667 µM) | 85.4% | 311% | 41.1% | 129% | 51.9% | 142% | 73.3% | 242% | 63.9%
7 | O=C1NC(=O)/C(=C/c2ccc(-c3ccc(F)cc3O)o2)S1 + Cn1cc(/C=C2\C(=O)Nc3cccnc32)c2ccccc21 [GW441756] (first compound 1 µM, partner dose 0.4 µM) | 36.4% | 234% | 75.5% | 124% | 122% | 391% | 304% | 99% | 87.6%
8 | O=C(Nc1ccccc1)c1cc([N+](=O)[O-])ccc1Cl + N#Cc1c(O)c2c(-c3ccc(-c4ccccc4O)cc3)csc2[nH]c1=O [A769662] (first compound 2 µM, partner dose 2 µM) | 46.2% | 130% | 52.5% | 127% | 109% | 133% | 103% | 118% | 82%
9 | CCc1ccc(CCOc2ccc(CC3SC(=O)NC3=O)cc2)nc1 (stereo not drawn) [pioglitazone] + CC(C)CCN1c2nc(Nc3cc(F)c(O)c(F)c3)ncc2N(C)C(=O)C1C [BID1870] (first compound 2 µM, partner dose 0.2 µM) | 67.4% | 195% | 133% | 202% | 135% | 50.5% | 129% | 131% | 119%
10 | COc1ccc(COc2ccc(Cc3cnc(N)nc3N)cc2OC)cc1 + O=C1NC(=O)/C(=C/c2ccc(-c3ccc(F)cc3O)o2)S1 [AS252424] (first compound 1 µM, partner dose 1 µM) | 67.4% | 147% | 69.9% | 46.7% | 166% | 48.6% | 75.6% | 79.8% | 65%
11 | COc1ccc(-c2ccc3c(N4CCOCC4)nc(N4C[C@@H](C)O[C@@H](C)C4)nc3n2)cc1CO + CCN(CC)CCCCNc1ncc2cc(-c3cc(OC)cc(OC)c3)c(NC(=O)NC(C)(C)C)nc2n1 [PD173074] (first compound 0.02 µM, partner dose 0.1 µM) | 39.4% | 52.9% | 73.5% | 125% | 66.5% | 633% | 189% | 39.5% | 132%
12 | O=C(O)C(=O)Nc1sc2c(c1C(=O)O)CCNC2 + CC(C)CCN1c2nc(Nc3cc(F)c(O)c(F)c3)ncc2N(C)C(=O)C1C [BID1870] (first compound 1.66667 µM, partner dose 0.2 µM) | 170% | 42.5% | 23% | 120% | 67.2% | 383% | 83% | 146% | 79.7%
